Experiment [1] addresses T1, CENP-SX (MHF) complex, chicken, tetramer (Gallus gallus).
T1 sequence 1: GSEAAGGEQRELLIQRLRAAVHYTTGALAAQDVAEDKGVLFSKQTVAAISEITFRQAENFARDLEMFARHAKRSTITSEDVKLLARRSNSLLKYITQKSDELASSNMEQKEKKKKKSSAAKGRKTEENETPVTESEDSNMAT
T1 sequence 2: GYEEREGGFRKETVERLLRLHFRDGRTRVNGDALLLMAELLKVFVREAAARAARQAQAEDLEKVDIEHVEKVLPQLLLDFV
Description: native gel or EMSA; FANCM–CENP-SX pentamer (1.25 µM) with dsDNA of 19–97 bp (1.25 µM), 42°C for 60 min, 10 mM Tris–HCl pH 7.5, 100 mM NaCl; 10–20% gradient native PAGE, ethidium bromide and Coomassie staining; both purified. On the technique in general: In EMSA bound probe runs differently from free probe, usually more slowly.

The target is the same in experiment [2]. Description: condition: only in crystallization drops with 30% 1,4-dioxane (organic solvent); SDS-PAGE of the contents of crystals; crystals grown from the FANCM–CENP-SX pentamer (50 µM) with dsDNA in about 30% 1,4-dioxane, 293 K; crystals, solution and film analysed by 15% SDS–PAGE, Coomassie Brilliant Blue; both purified.

Results on 1 molecule are retold here after article PMC9067375, “Biochemical and crystallization analysis of the CENP-SX–DNA complex” (Acta Crystallographica. Section F, Structural Biology …, 2022).

These are yes or no findings as the source states them, for the method shown. Some entries that bind do so weakly or less than the wild type.

B1: FANCM fragment, chicken (as in the FANCM–CENP-SX complex) (domain or fragment)
chain: GRSLHHKSALFSCVTDPKEMHCHENWSLSPEEFEIWDRLYRLKENDGVKEPILPHTRFETLENLDKTSKPEEEAAHKLSLSEWSIWQSRPFPTSMVDHSDRCYHFISVMELIEVMRQEQGDCSYELELQPHLRIEDIHVRRNKGHLSP
Turning to B1, the binding result is “binds” in experiment [1] and “no binding” in experiment [2].
